# Laboratory results reported in patent US20080107600A1.
# These are yes or no findings as the source states them, for the method shown. For some assays here: Binding seen in cells or lysates may run through a third protein. Some binding calls cover weakened binding; strength is not graded here. For some assays here: Where a sequence is shown, tags or fusion partners need not be part of it.
# T1: FEZ1-HA (human FEZ1 with a C-terminal HA tag) (human) (UniProt Q99689)
# T1 sequence: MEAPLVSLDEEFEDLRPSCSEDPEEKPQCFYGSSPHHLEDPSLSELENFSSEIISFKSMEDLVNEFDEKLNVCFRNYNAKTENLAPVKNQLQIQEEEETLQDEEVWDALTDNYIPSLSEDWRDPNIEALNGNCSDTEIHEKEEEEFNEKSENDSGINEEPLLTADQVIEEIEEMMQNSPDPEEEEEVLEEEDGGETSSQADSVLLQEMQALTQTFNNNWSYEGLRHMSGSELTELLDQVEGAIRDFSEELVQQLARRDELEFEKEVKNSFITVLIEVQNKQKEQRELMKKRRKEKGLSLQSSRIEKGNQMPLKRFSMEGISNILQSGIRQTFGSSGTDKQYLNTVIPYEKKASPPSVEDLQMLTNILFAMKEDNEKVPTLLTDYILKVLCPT
# Columns and labels:
# [1] = molecular target: DISC1 C-terminal domain (amino acids 348-854) in pAS2-1, yeast two-hybrid bait (human); assay: yeast two-hybrid screen of a human adult brain cDNA library with DISC1 348-854 as bait
# [2] = molecular target: DISC1 C-terminal domain (amino acids 348-854) in pAS2-1, yeast two-hybrid bait (human); assay: yeast two-hybrid, alpha-galactosidase assay
# [3] = molecular target: T1, FEZ1-HA (human FEZ1 with a C-terminal HA tag) (human); assay: co-immunoprecipitation from transfected HEK293T cells
# [4] = molecular target: T1, FEZ1-HA (human FEZ1 with a C-terminal HA tag) (human); assay: reciprocal co-immunoprecipitation from transfected HEK293T cells
binder,measurement,setting,value
"FEZ1 partial clone (amino acids 129-392) from the human adult brain cDNA library (protein, not shown: large carriers) LNGNCSDTEIHEKEEEEFNEKSENDSGINEEPLLTADQVIEEIEEMMQNSPDPEEEEEVLEEEDGGETSSQADSVLLQEMQALTQTFNNNWSYEGLRHMSGSELTELLDQVEGAIRDFSEELVQQLARRDELEFEKEVKNSFITVLIEVQNKQKEQRELMKKRRKEKGLSLQSSRIEKGNQMPLKRFSMEGISNILQSGIRQTFGSSGTDKQYLNTVIPYEKKASPPSVEDLQMLTNILFAMKEDNEKVPTLLTDYILKVLCPT",binding,[1],binds
"FEZ1 C-terminal fragment (amino acids 247-392) in pACT2 (protein, not shown: large carriers) SEELVQQLARRDELEFEKEVKNSFITVLIEVQNKQKEQRELMKKRRKEKGLSLQSSRIEKGNQMPLKRFSMEGISNILQSGIRQTFGSSGTDKQYLNTVIPYEKKASPPSVEDLQMLTNILFAMKEDNEKVPTLLTDYILKVLCPT",binding,[2],binds
"DISC1-FLAG (full-length human DISC1 with a C-terminal FLAG tag) (protein, not shown: small tags and cut ends) MPGGGPQGAPAAAGGGGVSHRAGSRDCLPPAACFRRRRLARRPGYMRSSTGPGIGFLSPAVGTLFRFPGGVSGEESHHSESRARQCGLDSRGLLVRSPVSKSAAAPTVTSVRGTSAHFGIQLRGGTRLPDRLSWPCGPGSAGWQQEFAAMDSSETLDASWEAACSDGARRVRAAGSLPSAELSSNSCSPGCGPEVPPTPPGSHSAFTSSFSFIRLSLGSAGERGEAEGCPPSREAESHCQSPQEMGAKAASLDGPHEDPRCLSQPFSLLATRVSADLAQAARNSSRPERDMHSLPDMDPGSSSSLDPSLAGCGGDGSSGSGDAHSWDTLLRKWEPVLRDCLLRNRRQMEVISLRLKLQKLQEDAVENDDYDKAETLQQRLEDLEQEKISLHFQLPSRQPALSSFLGHLAAQVQAALRRGATQQASGDDTHTPLRMEPRLLEPTAQDSLHVSITRRDWLLQEKQQLQKEIEALQARMFVLEAKDQQLRREIEEQEQQLQWQGCDLTPLVGQLSLGQLQEVSKALQDTLASAGQIPFHAEPPETIRSLQERIKSLNLSLKEITTKVCMSEKFCSTLRKKVNDIETQLPALLEAKMHAISGNHFWTAKDLTEEIRSLTSEREGLEGLLSKLLVLSSRNVKKLGSVKEDYNRLRREVEHQETAYETSVKENTMKYMETLKNKLCSCKCPLLGKVWEADLEACRLLIQSLQLQEARGSLSVEDERQMDDLEGAAPPIPPRLHSEDKRKTPLKVLEEWKTHLIPSLHCAGGEQKEESYILSAELGEKCEDIGKKLLYLEDQLHTAIHSHDEDLIQSLRRELQMVKETLQAMILQLQPAKEAGEREAAASCMTAGVHEAQA",binding,[3],binds
same,binding,[4],binds
"DISC1/BR-FLAG (FEZ1-binding region of DISC1, amino acids 446-633, FLAG-tagged) (protein, not shown: small tags and cut ends) DSLHVSITRRDWLLQEKQQLQKEIEALQARMFVLEAKDQQLRREIEEQEQQLQWQGCDLTPLVGQLSLGQLQEVSKALQDTLASAGQIPFHAEPPETIRSLQERIKSLNLSLKEITTKVCMSEKFCSTLRKKVNDIETQLPALLEAKMHAISGNHFWTAKDLTEEIRSLTSEREGLEGLLSKLLVLSS",binding,[3],binds
